The source of these data is publication PMC8844804.

Chains of the proteins cited; added tags and fusions are not shown. Chains listed by the source or under a name are the forms on record and can include a tag or linker. Residues count along the entry.
UniProt P08637, 17-254: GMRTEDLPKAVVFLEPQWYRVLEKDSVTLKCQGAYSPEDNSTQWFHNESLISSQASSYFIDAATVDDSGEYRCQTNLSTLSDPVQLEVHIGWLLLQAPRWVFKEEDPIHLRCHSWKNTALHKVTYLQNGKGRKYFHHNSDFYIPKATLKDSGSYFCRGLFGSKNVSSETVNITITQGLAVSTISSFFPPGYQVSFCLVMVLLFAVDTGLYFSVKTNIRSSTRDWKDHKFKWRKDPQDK
UniProt Q9NZQ7, 19-290: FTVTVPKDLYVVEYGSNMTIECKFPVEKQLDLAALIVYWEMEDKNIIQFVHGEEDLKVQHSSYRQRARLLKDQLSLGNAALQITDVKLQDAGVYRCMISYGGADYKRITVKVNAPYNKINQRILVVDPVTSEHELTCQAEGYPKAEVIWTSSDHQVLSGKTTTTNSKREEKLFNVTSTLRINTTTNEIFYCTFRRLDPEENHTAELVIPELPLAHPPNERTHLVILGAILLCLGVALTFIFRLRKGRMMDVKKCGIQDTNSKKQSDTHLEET
CD16 on murine NK cells (mouse (nude mouse spleen)), one chain, as listed by the source: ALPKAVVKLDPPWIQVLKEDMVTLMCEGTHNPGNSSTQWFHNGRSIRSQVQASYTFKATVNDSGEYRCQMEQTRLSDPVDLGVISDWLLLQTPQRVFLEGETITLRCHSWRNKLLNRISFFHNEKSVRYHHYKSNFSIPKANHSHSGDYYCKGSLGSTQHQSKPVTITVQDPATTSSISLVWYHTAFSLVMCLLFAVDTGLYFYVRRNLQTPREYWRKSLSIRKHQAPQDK

Common to all, as to assay: cell binding, confocal fluorescence
In data set [1] the target is CD16 on human NK cells (human) (UniProt P08637). The settings on record: 200 nM aptamer, 5' phosphate, Cells with 200 nM Evagreen-labeled aptamer, 37 C, 30 min, PBS wash, incubation buffer and pH not stated, protein on the cell surface, label: Evagreen (intercalated dye), folded or branched DNA.
In data set [2] the test system is CD16 on murine NK cells (mouse (nude mouse spleen)). Conditions: 200 nM aptamer, weak signal; 5' phosphate; 5' and 3' ends ligated by T4 DNA ligase (closed circle); Cells with 200 nM Evagreen-labeled aptamer, 37 C, 30 min; PBS wash; incubation buffer and pH not stated; protein on the cell surface; label: Evagreen (intercalated dye); folded or branched DNA.
Data set [3] concerns the target PD-L1 on HeLa cells (human) (UniProt Q9NZQ7). Conditions: 200 nM aptamer, 5' phosphate, Cells with 200 nM Evagreen-labeled aptamer, 37 C, 30 min, PBS wash, incubation buffer and pH not stated, protein on the cell surface, label: Evagreen (intercalated dye), folded or branched DNA.
The target in data set [4] is PD-L1 on SMMC-7721 cells (human) (UniProt Q9NZQ7). Conditions: 200 nM aptamer, 5' phosphate, Cells with 200 nM Evagreen-labeled aptamer, 37 C, 30 min, PBS wash, incubation buffer and pH not stated, protein on the cell surface, label: Evagreen (intercalated dye), folded or branched DNA.
[5] abbreviates: reduced by anti-PD-L1 antibody, 5' and 3' ends ligated by T4 DNA ligase (closed circle).
The mark [6] stands for this setting: ends ligated by T4 DNA ligase (closed circle).

Construct, isoform or probe ends are uncertain for at least one entry. Where cells or extracts were used, other partners may take part. For some of these results: A weaker result is weaker than the reference pair of the same experiment. For some of these results: At least one verdict rests on a figure or table, not on a statement of the authors.

“GACCTGCCCACTGCGGGGGTCTATACGTGAGGAAGAAGTGGGCAGGTCCAGACGGGCCACATCAACTCATTGATAGACAATGCGTCCACTGCCCGTCTG [CP-bi-apt]”: the binding result is on record as “binds” in data set [1] (reduced by anti-CD16 antibody, 5' and 3' ends ligated by T4 DNA ligase (closed circle)); “binds more weakly” in data set [2]; “binds” in data set [3] (setting [5]); “binds” in data set [4] (setting [5]).

“GACCTGCCCACTTTTTTTTTTTTTTTTTTTTTTTTTAGTGGGCAGGTCCAGACGGGCCACATCAACTCATTGATAGACAATGCGTCCACTGCCCGTCTG [PD-L1-apt]”: the binding result in data set [3] (setting [6]) and in data set [4] (setting [6]) was “binds” in each case.

As to “GACCTGCCCACTGCGGGGGTCTATACGTGAGGAAGAAGTGGGCAGGTCCAGACGGGCTTTTTTTTTTTTTTTTTTTTTTTTTTTTTTTTTGCCCGTCTG [CD16-apt]”, the binding result in data set [1] (setting [6]) is listed as “binds”.
